The list does not hold the whole screen: it is rich in T/C values a quarter to a half above the control, in often repeated tests (any T/C) and in doses without a T/C. Further doses and runs are listed elsewhere. T/C is the treated group as % of the vehicle group. Some entries give survivors of the animals treated and no T/C: the source holds a T/C of zero for them, seemingly a mark for toxic or unscored doses. Some survivor counts are full or nearly so, which does not show that the dose was tolerated: the source hardly ever lists a survival T/C far under the control, and the zero likely stands for such cases as well. Survivors were counted at the toxicity check, usually on the fifth day, unless a day is given; later deaths do not show. Schedules are NCI's codes, taken here to give the interval after Q, in days (D) or hours (H), and the number of doses after X. Counts like (3×) say how often a value occurs here. Some entries hold several experiments; the values are given in rising order. Where survival is the endpoint, the PubChem record calls one and a half times the control and up active, and a quarter to a half above the control has no call in these data; cut-offs in other NCI protocols can differ. Some T/C values carry the count of animals alive at the toxicity check (mostly the fifth day); without a count, all were alive then.
Test system: BDF1 mice, B16 melanoma ip, median survival T/C
Assay: NCI In Vivo Anticancer Drug Screen. Data for tumor model B16 Melanoma (intraperitoneal) in B6D2F1 (BDF1) mice
Settings: T/C endpoint: median survival time, higher T/C = longer survival
Method in brief: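 Antitumor activity is assessed in mice bearing a transplanted tumor, with survival or tumor size compared against vehicle-dosed controls and expressed as T/C.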

[1] = dose: 6.25 mg/kg/injection, schedule: Q01DX009 (ip), vehicle: saline with Tween-80
[2] = dose: 25.0 mg/kg/injection, schedule: Q01DX009 (ip), vehicle: saline with Tween-80
[3] = dose: 50.0 mg/kg/injection, schedule: Q01DX009 (ip), vehicle: saline with Tween-80
[4] = dose: 4.0 mg/kg/injection, schedule: Q01DX009 (ip), vehicle: saline
[5] = dose: 8.0 mg/kg/injection, schedule: Q01DX009 (ip), vehicle: saline
[6] = dose: 12.5 mg/kg/injection, schedule: Q01DX009 (ip), vehicle: saline with Tween-80
[7] = dose: 100.0 mg/kg/injection, schedule: Q01DX009 (ip), vehicle: saline with Tween-80
[8] = dose: 200.0 mg/kg/injection, schedule: Q01DX009 (ip), vehicle: saline with Tween-80
[9] = dose: 400.0 mg/kg/injection, schedule: Q01DX009 (ip), vehicle: saline with Tween-80
[10] = dose: 100.0 mg/kg/injection, schedule: Q01DX009 (ip), vehicle: saline
[11] = dose: 200.0 mg/kg/injection, schedule: Q01DX009 (ip), vehicle: saline

**Q.** For `NC(=S)N/N=C\c1nccc2c(N)cccc12`, which T/C (dose: 3.13 mg/kg/injection, schedule: Q01DX009 (ip), vehicle: saline) is on record?
**A.** Its T/C is 140 % of control [9 of 10 alive].

**Q.** And the T/C [1]?
**A.** The T/C was 129 % of control.

**Q.** And the T/C (dose: 9.4 mg/kg/injection, schedule: Q04DX003 (ip), vehicle: saline)?
**A.** The T/C was 133 % of control [9 of 10 alive].

**Q.** And the T/C (dose: 12.5 mg/kg/injection, schedule: Q01DX009 (ip), vehicle: saline with Tween-80, evaluated on day 45)?
**A.** Its T/C is 139 % of control.

**Q.** And the T/C (dose: 12.5 mg/kg/injection, schedule: Q01DX009 (ip), vehicle: saline with Tween-80, evaluated on day 60)?
**A.** Its T/C is 130 % of control.

**Q.** And the T/C [2]?
**A.** Its T/C is 140 and 146 % of control.

**Q.** And the T/C [3]?
**A.** Its T/C is 141 % of control.

**Q.** Which survivor count (dose: 0.06 mg/kg/injection, schedule: Q01DX009 (ip), vehicle: saline) does the source give for `OCCN1CCN(CC/C=C2/c3ccccc3Sc3ccc(C(F)(F)F)cc32)CC1` here?
**A.** Its survivor count is 9 of 10.

**Q.** What about the survivor count (dose: 0.12 mg/kg/injection, schedule: Q01DX009 (ip), vehicle: saline) of the same compound?
**A.** Its survivor count is 10 of 10.

**Q.** What about the survivor count [4] of the same compound?
**A.** Its survivor count is 9 of 10.

**Q.** And the survivor count [5]?
**A.** The survivor count was 1 of 10.

**Q.** What about the survivor count (dose: 16.0 mg/kg/injection, schedule: Q01DX009 (ip), vehicle: saline) of the same compound?
**A.** Its survivor count is 0 of 10.

**Q.** What about the survivor count (dose: 32.0 mg/kg/injection, schedule: Q01DX009 (ip), vehicle: saline) of the same compound?
**A.** The survivor count was 0 of 10.

**Q.** Which survivor count [3] does the source give for `CCCC(C)C/C(C)=C/C(C)(C)C(CC(=O)N1CCOCC1)C(=O)O` (centres undefined) here?
**A.** Its survivor count is 10 of 10.

**Q.** What about the survivor count (dose: 100.0 mg/kg/injection, schedule: Q04DX003 (ip), vehicle: saline with Tween-80) of the same compound?
**A.** Its survivor count is 10 of 10.

**Q.** Which survivor count [6] does the source give for `COC(=O)CCC1=C(C)c2cc3[n-]c(cc4nc(cc5[n-]c(cc1n2)c(CCC(=O)OC)c5C)C=C4C)cc3C.[Ni+2]` here?
**A.** The survivor count was 10 of 10.

**Q.** What about the survivor count [2] of the same compound?
**A.** The survivor count was 10 of 10.

**Q.** What about the survivor count [3] of the same compound?
**A.** Its survivor count is 10 of 10.

**Q.** And the survivor count [7]?
**A.** Its survivor count is 10 of 10.

**Q.** What about the survivor count [8] of the same compound?
**A.** The survivor count was 8 of 10.

**Q.** What about the survivor count [9] of the same compound?
**A.** The survivor count was 10 of 10.

**Q.** For `Nc1nncs1`, which survivor count (dose: 64.0 mg/kg/injection, schedule: Q01DX009 (ip), vehicle: saline) is on record?
**A.** Its survivor count is 10 of 10.

**Q.** And the survivor count (dose: 128.0 mg/kg/injection, schedule: Q01DX009 (ip), vehicle: other)?
**A.** The survivor count was 6 of 6.

**Q.** What about the survivor count (dose: 128.0 mg/kg/injection, schedule: Q01DX009 (ip), vehicle: saline) of the same compound?
**A.** The survivor count was 9 of 10.

**Q.** What about the survivor count (dose: 256.0 mg/kg/injection, schedule: Q01DX009 (ip), vehicle: other) of the same compound?
**A.** Its survivor count is 6 of 6.

**Q.** What about the survivor count (dose: 256.0 mg/kg/injection, schedule: Q01DX009 (ip), vehicle: saline) of the same compound?
**A.** The survivor count was 8 of 10.

**Q.** For `O=C(C1CO1)C(Cl)(Cl)Cl` (centres undefined), which survivor count (dose: 50.0 mg/kg/injection, schedule: Q01DX009 (ip), vehicle: saline) is on record?
**A.** The survivor count was 5 of 10.

**Q.** And the survivor count [10]?
**A.** Its survivor count is 1 of 10.

**Q.** And the survivor count [11]?
**A.** Its survivor count is 1 of 10.

**Q.** Which T/C [7] does the source give for `CCCC(=O)Oc1ccc(/C=N/NC(N)=S)nc1` here?
**A.** Its T/C is 130 % of control.

**Q.** What about the T/C [8] of the same compound?
**A.** Its T/C is 130 % of control.

**Q.** And the survivor count [9]?
**A.** Its survivor count is 10 of 10 (2×).

**Q.** And the survivor count (dose: 600.0 mg/kg/injection, schedule: Q01DX009 (ip), vehicle: saline with Tween-80)?
**A.** The survivor count was 10 of 10.

**Q.** `O=C(NCCCl)NCCCl` was tested. Which survivor count [7] did it give?
**A.** The survivor count was 9 of 10.

**Q.** And the survivor count (dose: 800.0 mg/kg/injection, schedule: Q01DX009 (ip), vehicle: saline with Tween-80)?
**A.** The survivor count was 5 of 10.

**Q.** How did the T/C (dose: 1.25 mg/kg/injection, schedule: Q04DX003 (ip), vehicle: saline with Tween-80) turn out when `c1cc[c]([Sn][c]2ccccc2)cc1` was run?
**A.** The T/C was 130 % of control [9 of 10 alive].

**Q.** With `Clc1ccc(C(c2ccccc2Cl)C(Cl)Cl)cc1` (centres undefined) as the compound, how does the survivor count [9] read?
**A.** The survivor count was 6 of 6.

**Q.** With `C[C@]12CC[C@@H]3c4ccc(OC(=O)Cc5ccc(N(CCCl)CCCl)cc5)cc4CC[C@H]3[C@@H]1CC[C@@H]2OC(=O)Cc1ccc(N(CCCl)CCCl)cc1` as the compound, how does the survivor count (dose: 64.0 mg/kg/injection, schedule: Q02DX009 (ip), vehicle: Klucel (hydroxypropylcellulose) (HPC)) read?
**A.** Its survivor count is 10 of 10.

**Q.** What about the survivor count (dose: 128.0 mg/kg/injection, schedule: Q02DX009 (ip), vehicle: Klucel (hydroxypropylcellulose) (HPC)) of the same compound?
**A.** The survivor count was 10 of 10.

**Q.** What about the survivor count (dose: 256.0 mg/kg/injection, schedule: Q02DX009 (ip), vehicle: Klucel (hydroxypropylcellulose) (HPC)) of the same compound?
**A.** The survivor count was 10 of 10.

**Q.** And the survivor count (dose: 512.0 mg/kg/injection, schedule: Q02DX009 (ip), vehicle: Klucel (hydroxypropylcellulose) (HPC))?
**A.** The survivor count was 10 of 10.

**Q.** With `CCC1(O)CC(OC2CC(N(C)C)C(OC3CC(O)C(OC4CCC(=O)C(C)O4)C(C)O3)C(C)O2)c2c(cc3c(c2O)C(=O)c2c(O)ccc(O)c2C3=O)C1C(=O)OC` (centres undefined) as the compound, how does the T/C (dose: 0.46 mg/kg/injection, schedule: Q01DX009 (ip), vehicle: saline with Tween-80) read?
**A.** The T/C was 126 % of control [9 of 10 alive].

**Q.** And the T/C (dose: 0.93 mg/kg/injection, schedule: Q01DX009 (ip), vehicle: saline with Tween-80)?
**A.** The T/C was 134 [9 of 10 alive] and 138 % of control.

**Q.** What about the survivor count (dose: 1.87 mg/kg/injection, schedule: Q01DX009 (ip), vehicle: saline with Tween-80) of the same compound?
**A.** Its survivor count is 10 of 10.

**Q.** What about the survivor count (dose: 3.75 mg/kg/injection, schedule: Q01DX009 (ip), vehicle: saline with Tween-80) of the same compound?
**A.** Its survivor count is 10 of 10.

**Q.** What about the survivor count (dose: 7.5 mg/kg/injection, schedule: Q01DX009 (ip), vehicle: saline with Tween-80) of the same compound?
**A.** The survivor count was 9 of 10.

**Q.** What about the survivor count (dose: 10.0 mg/kg/injection, schedule: Q01DX001 (ip), vehicle: water) of the same compound?
**A.** Its survivor count is 8 of 8.

**Q.** And the survivor count (dose: 15.0 mg/kg/injection, schedule: Q01DX009 (ip), vehicle: saline with Tween-80)?
**A.** The survivor count was 0 of 10.

**Q.** What about the survivor count (dose: 16.7 mg/kg/injection, schedule: Q01DX001 (ip), vehicle: water) of the same compound?
**A.** Its survivor count is 2 of 8 and 3 of 8.

**Q.** How did the T/C (dose: 25.0 mg/kg/injection, schedule: Q04DX003 (ip), vehicle: saline with Tween-80) turn out when `COc1ccc(N=NNc2ccc(OC)cc2)cc1` was run?
**A.** Its T/C is 128 % of control.

**Q.** With `Cc1n(CC(C)C)c2c([n+]1C)C(=O)c1ccccc1C2=O` as the compound, how does the survivor count [4] read?
**A.** Its survivor count is 3 of 6.

**Q.** What about the survivor count [5] of the same compound?
**A.** Its survivor count is 0 of 6.

**Q.** With `COc1cc2c(cc1OC)C(OC)N(C)c1c-2ccc2cc3c(cc12)OCO3` (centres undefined) as the compound, how does the T/C [6] read?
**A.** The T/C was 126 % of control.

**Q.** And the survivor count [3]?
**A.** Its survivor count is 9 of 10.

**Q.** And the survivor count [7]?
**A.** The survivor count was 6 of 10.

**Q.** What does the source list for `COc1ccc(CN(CCOC(=O)c2ccc(OC)cc2)CCN(CCOC(=O)c2ccc(OC)cc2)Cc2ccc(OC)cc2)cc1`?
**A.** survivor count (dose: 25.0 mg/kg/injection, schedule: Q01DX009 (ip), vehicle: other): 10 of 10; survivor count (dose: 50.0 mg/kg/injection, schedule: Q01DX009 (ip), vehicle: other): 10 of 10; survivor count (dose: 100.0 mg/kg/injection, schedule: Q01DX009 (ip), vehicle: other): 10 of 10; survivor count (dose: 200.0 mg/kg/injection, schedule: Q01DX009 (ip), vehicle: other): 10 of 10

**Q.** Which results are given for `CCCC1CC[N-]CC1.CCCC1CC[N-]CC1.CCCC1CC[N-]CC1.CCCC1CC[N-]CC1.[Cl][Rh][Cl]`?
**A.** survivor count (dose: 3.0 mg/kg/injection, schedule: Q01DX009 (ip), vehicle: Klucel (hydroxypropylcellulose) (HPC)): 5 of 10; survivor count (dose: 6.0 mg/kg/injection, schedule: Q01DX009 (ip), vehicle: Klucel (hydroxypropylcellulose) (HPC)): 0 of 10; survivor count [1]: 8 of 10; survivor count [6]: 5 of 6; survivor count [2]: 3 of 6; survivor count [10]: 0 of 6; survivor count [11]: 0 of 6; survivor count (dose: 400.0 mg/kg/injection, schedule: Q01DX009 (ip), vehicle: saline): 0 of 6

**Q.** For `O=C(CCN1CC1)Nc1ccc(NC(=O)CCN2CC2)cc1`, which T/C (dose: 2.5 mg/kg/injection, schedule: Q04DX003 (ip), vehicle: Klucel (hydroxypropylcellulose) (HPC)) is on record?
**A.** Its T/C is 139 % of control.

**Q.** What about the survivor count (dose: 40.0 mg/kg/injection, schedule: Q04DX003 (ip), vehicle: Klucel (hydroxypropylcellulose) (HPC)) of the same compound?
**A.** The survivor count was 10 of 10.
